Laboratory results as given in paper PMC8863768.
These are yes or no findings as the source states them, for the method shown. Binding seen in cells or lysates may run through a third protein. Some results given as binding are weak or reduced against the parent protein; the word gives no strength.

Target: Nesprin-1 (mouse (endogenous in IIA1.6 B-lymphoma cells)) (UniProt Q6ZWR6)
Assay: co-IP; IP of endogenous Nesprin-1 with rabbit anti-Nesprin-1 (ab192234; non-specific rabbit IgG as control) from lysates of B cells, resting or activated for different times; IP buffer 10 mM Hepes pH 7.4, 10 mM KCl, 5 mM EDTA, 1% Triton X-100; overnight at 4°C, protein A agarose beads; Western blot

B1: Sun-1 (protein, UniProt Q9D666 1-913)
chain: MDFSRLHTYTPPQCVPENTGYTYALSSSYSSDALDFETEHKLEPVFDSPRMSRRSLRLVTTASYSSGDSQAIDSHISTSRATPAKGRETRTVKQRRSASKPAFSINHLSGKGLSSSTSHDSSCSLRSATVLRHPVLDESLIREQTKVDHFWGLDDDGDLKGGNKAATQGNGELAAEVASSNGYTCRDCRMLSARTDALTAHSAIHGTTSRVYSRDRTLKPRGVSFYLDRTLWLAKSTSSSFASFIVQLFQVVLMKLNFETYKLKGYESRAYESQSYETKSHESEAHLGHCGRMTAGELSRVDGESLCDDCKGKKHLEIHTATHSQLPQPHRVAGAMGRLCIYTGDLLVQALRRTRAAGWSVAEAVWSVLWLAVSAPGKAASGTFWWLGSGWYQFVTLISWLNVFLLTRCLRNICKVFVLLLPLLLLLGAGVSLWGQGNFFSLLPVLNWTAMQPTQRVDDSKGMHRPGPLPPSPPPKVDHKASQWPQESDMGQKVASLSAQCHNHDERLAELTVLLQKLQIRVDQVDDGREGLSLWVKNVVGQHLQEMGTIEPPDAKTDFMTFHHDHEVRLSNLEDVLRKLTEKSEAIQKELEETKLKAGSRDEEQPLLDRVQHLELELNLLKSQLSDWQHLKTSCEQAGARIQETVQLMFSEDQQGGSLEWLLEKLSSRFVSKDELQVLLHDLELKLLQNITHHITVTGQAPTSEAIVSAVNQAGISGITEAQAHIIVNNALKLYSQDKTGMVDFALESGGGSILSTRCSETYETKTALLSLFGVPLWYFSQSPRVVIQPDIYPGNCWAFKGSQGYLVVRLSMKIYPTTFTMEHIPKTLSPTGNISSAPKDFAVYGLETEYQEEGQPLGRFTYDQEGDSLQMFHTLERPDQAFQIVELRVLSNWGHPEYTCLYRFRVHGEPIQ
B1 was tested, and the binding was “binds”.

B2: Sun-2 (protein, UniProt Q8BJS4 1-731)
chain: MSRRSQRLTRYSQDDNDGGSSSSGASSVAGSQGTVFKDSPLRTLKRKSSNMKHLSPAPQLGPSSDSHTSYYSESVVRESYIGSPRAVSLARSALLDDHLHSEPYWSGDLRGRRRRGTGGSESSKANGLTAESKASEDFFGSSSGYSSEDDLAGYTDSDQHSSGSRLRSAASRAGSFVWTLVTFPGRLFGLLYWWIGTTWYRLTTAASLLDVFVLTRSRHFSLNLKSFLWFLLLLLLLTGLTYGAWHFYPLGLQTLQPAVVSWWAAKESRKQPEVWESRDASQHFQAEQRVLSRVHSLERRLEALAADFSSNWQKEAIRLERLELRQGAAGHGGGSSLSHEDALSLLEGLVSRREATLKEDLRRDTVAHIQEELATLRAEHHQDSEDLFKKIVQASQESEARVQQLKTEWKSMTQEAFQESSVKELGRLEAQLASLRQELAALTLKQNSVADEVGLLPQKIQAARADVESQFPDWIRQFLLGDRGARSGLLQRDEMHAQLQELENKILTKMAEMQGKSAREAAASLGQILQKEGIVGVTEEQVHRIVKQALQRYSEDRIGMVDYALESGGASVISTRCSETYETKTALLSLFGIPLWYHSQSPRVILQPDVHPGNCWAFQGPQGFAVVRLSARIRPTAVTLEHVPKALSPNSTISSAPKDFAIFGFDEDLQQEGTLLGTFAYDQDGEPIQTFYFQASKMATYQVVELRILTNWGHPEYTCIYRFRVHGEPAH
In the case of B2, the binding is reported as “no binding”.
